# Data reported in the supplement of paper PMC10849652.
# Sequences of proteins named here, by UniProt entry; tags and fusion partners are left off. A change or cut given only in a name is not applied to a line headed by its entry.
# UniProt O95376: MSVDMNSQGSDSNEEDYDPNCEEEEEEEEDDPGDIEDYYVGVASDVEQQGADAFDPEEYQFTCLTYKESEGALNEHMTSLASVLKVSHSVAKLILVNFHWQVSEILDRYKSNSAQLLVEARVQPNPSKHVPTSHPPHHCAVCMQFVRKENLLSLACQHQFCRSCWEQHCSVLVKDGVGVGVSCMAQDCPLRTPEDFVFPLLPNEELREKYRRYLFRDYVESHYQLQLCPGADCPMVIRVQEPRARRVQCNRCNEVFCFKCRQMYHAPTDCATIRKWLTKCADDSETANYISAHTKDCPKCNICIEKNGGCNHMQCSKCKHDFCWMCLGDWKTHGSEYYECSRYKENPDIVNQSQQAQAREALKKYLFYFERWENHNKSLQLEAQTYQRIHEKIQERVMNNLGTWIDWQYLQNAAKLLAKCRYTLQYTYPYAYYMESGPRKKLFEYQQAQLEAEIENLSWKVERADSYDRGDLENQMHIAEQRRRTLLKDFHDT
# UniProt Q99767, whole entry, looked up: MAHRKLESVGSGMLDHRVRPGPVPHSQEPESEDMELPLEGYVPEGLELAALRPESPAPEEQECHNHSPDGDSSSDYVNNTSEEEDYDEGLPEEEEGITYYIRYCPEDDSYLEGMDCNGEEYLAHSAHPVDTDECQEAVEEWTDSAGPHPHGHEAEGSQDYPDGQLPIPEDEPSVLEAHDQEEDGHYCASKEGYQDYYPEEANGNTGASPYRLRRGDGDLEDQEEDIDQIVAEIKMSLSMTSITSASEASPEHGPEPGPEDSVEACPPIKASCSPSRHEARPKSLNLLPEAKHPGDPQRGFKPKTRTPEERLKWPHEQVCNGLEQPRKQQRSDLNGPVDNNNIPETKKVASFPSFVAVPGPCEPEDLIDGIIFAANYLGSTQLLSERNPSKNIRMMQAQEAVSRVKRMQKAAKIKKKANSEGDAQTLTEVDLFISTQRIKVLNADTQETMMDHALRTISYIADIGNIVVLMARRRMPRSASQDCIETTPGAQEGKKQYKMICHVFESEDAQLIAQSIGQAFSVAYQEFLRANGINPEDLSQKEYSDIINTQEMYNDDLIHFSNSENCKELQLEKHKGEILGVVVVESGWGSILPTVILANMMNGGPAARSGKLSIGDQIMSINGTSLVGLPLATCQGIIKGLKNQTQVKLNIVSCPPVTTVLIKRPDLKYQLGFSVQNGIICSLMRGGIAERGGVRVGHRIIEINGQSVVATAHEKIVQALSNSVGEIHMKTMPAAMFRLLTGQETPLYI
# UniProt P36405: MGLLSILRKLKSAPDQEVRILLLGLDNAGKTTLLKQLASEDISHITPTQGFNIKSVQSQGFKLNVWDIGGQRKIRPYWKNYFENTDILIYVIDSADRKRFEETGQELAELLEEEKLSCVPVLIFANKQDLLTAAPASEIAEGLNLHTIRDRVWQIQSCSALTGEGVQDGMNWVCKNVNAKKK
# UniProt Q9H993: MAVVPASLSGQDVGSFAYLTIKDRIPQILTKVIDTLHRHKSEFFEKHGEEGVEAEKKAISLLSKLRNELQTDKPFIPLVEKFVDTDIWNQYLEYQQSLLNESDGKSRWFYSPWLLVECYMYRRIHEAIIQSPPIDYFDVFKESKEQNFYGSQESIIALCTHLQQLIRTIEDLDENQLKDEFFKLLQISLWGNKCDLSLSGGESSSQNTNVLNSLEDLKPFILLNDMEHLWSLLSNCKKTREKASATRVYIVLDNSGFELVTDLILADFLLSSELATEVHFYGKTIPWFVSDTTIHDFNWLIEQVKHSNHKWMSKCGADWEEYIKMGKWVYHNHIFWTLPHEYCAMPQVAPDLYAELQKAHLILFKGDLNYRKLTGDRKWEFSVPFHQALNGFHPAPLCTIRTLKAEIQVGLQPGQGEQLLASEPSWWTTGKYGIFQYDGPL
# UniProt Q8N5I2: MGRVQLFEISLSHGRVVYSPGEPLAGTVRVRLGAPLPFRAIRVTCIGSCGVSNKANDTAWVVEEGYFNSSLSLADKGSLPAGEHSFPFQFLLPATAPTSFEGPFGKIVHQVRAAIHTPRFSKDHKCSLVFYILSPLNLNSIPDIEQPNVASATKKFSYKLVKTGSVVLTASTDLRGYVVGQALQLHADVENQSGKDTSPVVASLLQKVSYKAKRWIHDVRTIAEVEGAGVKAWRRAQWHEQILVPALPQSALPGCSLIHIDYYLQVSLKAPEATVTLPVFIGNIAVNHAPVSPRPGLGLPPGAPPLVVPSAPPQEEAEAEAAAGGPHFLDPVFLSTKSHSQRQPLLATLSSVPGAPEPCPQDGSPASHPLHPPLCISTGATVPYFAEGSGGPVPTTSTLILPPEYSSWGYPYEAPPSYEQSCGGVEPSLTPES
# UniProt P02647, whole entry, looked up: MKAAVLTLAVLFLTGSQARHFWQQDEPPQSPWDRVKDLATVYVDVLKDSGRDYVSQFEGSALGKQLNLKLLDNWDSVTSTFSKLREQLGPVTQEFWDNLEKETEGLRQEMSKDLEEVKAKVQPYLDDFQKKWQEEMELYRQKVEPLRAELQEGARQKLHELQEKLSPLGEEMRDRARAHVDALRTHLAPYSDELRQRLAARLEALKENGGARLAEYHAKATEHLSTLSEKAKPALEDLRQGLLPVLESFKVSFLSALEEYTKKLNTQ
# UniProt Q8IWW6: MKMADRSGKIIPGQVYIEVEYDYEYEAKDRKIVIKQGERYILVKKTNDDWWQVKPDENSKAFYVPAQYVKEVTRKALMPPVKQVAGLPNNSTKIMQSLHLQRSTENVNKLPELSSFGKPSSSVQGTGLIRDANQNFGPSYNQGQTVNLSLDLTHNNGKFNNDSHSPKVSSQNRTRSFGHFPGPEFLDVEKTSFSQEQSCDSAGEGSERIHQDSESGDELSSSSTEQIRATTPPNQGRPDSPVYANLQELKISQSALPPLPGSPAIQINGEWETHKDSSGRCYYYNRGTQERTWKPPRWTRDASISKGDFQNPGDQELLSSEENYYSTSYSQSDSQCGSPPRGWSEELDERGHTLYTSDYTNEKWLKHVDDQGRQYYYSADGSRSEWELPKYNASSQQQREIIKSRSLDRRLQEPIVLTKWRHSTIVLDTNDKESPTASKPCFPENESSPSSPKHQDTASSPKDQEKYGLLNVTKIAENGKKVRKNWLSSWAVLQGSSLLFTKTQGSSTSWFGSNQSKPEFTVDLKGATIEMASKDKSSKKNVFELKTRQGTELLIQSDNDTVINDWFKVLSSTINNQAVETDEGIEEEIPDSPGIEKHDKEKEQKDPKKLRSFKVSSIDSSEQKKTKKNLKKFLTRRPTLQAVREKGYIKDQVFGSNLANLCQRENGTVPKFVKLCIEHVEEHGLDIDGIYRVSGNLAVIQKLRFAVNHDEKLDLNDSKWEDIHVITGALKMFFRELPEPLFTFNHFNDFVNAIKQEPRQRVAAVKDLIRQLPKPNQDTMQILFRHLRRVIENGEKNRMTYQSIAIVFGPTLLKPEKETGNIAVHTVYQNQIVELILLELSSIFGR
# UniProt Q9H0R1: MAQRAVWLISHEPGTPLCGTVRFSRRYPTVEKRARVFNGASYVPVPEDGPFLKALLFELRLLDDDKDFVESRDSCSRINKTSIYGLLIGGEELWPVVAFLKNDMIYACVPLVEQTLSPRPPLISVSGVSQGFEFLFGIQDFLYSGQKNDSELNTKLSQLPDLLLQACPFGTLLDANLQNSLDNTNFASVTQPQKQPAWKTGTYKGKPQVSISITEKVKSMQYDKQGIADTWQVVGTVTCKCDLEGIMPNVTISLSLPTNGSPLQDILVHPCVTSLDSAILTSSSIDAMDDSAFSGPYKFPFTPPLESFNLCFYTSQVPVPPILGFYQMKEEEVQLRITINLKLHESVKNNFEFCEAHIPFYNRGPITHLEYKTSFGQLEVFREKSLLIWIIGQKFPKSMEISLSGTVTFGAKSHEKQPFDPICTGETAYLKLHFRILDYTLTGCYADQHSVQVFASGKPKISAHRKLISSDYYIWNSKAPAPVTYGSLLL
# UniProt P27540, whole entry, looked up: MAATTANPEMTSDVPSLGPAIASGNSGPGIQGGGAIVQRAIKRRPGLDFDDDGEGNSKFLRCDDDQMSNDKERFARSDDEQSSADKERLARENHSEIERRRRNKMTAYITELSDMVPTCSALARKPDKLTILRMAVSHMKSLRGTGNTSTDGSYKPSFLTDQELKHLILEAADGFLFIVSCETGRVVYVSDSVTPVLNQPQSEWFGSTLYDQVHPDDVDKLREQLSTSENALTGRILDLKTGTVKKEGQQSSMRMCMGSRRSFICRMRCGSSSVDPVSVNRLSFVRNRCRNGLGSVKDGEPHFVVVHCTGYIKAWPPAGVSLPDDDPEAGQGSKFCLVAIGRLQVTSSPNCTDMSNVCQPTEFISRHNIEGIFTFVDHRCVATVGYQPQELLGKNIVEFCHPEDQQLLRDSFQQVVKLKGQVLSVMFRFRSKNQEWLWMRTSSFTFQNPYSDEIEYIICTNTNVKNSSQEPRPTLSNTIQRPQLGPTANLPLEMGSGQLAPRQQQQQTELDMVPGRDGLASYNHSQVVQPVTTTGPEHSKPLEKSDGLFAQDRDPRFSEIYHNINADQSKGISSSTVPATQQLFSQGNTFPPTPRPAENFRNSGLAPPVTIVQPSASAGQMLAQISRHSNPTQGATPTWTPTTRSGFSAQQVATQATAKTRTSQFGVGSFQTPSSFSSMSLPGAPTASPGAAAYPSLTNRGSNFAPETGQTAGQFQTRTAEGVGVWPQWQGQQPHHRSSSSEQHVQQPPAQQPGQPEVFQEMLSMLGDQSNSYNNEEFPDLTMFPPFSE
# UniProt P36404: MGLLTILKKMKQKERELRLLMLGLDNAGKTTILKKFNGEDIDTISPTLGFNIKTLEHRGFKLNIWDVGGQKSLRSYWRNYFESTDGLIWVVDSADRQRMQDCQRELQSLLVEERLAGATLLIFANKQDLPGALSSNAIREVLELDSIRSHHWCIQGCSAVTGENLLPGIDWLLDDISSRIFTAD
# UniProt Q14155: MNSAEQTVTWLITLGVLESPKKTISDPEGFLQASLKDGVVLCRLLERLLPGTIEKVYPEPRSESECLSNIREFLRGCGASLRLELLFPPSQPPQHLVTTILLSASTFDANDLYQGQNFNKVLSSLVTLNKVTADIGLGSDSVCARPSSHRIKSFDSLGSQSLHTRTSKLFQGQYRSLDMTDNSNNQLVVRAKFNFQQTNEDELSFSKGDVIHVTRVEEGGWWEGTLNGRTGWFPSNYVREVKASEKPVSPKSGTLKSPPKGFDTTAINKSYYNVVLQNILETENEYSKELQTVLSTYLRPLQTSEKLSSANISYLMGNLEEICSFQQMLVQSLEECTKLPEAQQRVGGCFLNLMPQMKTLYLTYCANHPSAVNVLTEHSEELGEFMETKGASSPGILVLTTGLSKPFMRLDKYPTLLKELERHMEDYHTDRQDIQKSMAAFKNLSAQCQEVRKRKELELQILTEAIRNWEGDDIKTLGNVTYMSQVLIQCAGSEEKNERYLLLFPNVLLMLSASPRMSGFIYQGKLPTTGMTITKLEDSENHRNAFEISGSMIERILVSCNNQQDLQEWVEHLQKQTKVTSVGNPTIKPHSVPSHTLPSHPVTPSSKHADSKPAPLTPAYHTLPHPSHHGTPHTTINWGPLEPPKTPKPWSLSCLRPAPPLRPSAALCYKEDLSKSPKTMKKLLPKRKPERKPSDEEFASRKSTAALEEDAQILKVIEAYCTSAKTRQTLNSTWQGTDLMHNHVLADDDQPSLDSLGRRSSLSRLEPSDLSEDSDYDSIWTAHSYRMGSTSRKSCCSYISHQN
# UniProt Q68EM7: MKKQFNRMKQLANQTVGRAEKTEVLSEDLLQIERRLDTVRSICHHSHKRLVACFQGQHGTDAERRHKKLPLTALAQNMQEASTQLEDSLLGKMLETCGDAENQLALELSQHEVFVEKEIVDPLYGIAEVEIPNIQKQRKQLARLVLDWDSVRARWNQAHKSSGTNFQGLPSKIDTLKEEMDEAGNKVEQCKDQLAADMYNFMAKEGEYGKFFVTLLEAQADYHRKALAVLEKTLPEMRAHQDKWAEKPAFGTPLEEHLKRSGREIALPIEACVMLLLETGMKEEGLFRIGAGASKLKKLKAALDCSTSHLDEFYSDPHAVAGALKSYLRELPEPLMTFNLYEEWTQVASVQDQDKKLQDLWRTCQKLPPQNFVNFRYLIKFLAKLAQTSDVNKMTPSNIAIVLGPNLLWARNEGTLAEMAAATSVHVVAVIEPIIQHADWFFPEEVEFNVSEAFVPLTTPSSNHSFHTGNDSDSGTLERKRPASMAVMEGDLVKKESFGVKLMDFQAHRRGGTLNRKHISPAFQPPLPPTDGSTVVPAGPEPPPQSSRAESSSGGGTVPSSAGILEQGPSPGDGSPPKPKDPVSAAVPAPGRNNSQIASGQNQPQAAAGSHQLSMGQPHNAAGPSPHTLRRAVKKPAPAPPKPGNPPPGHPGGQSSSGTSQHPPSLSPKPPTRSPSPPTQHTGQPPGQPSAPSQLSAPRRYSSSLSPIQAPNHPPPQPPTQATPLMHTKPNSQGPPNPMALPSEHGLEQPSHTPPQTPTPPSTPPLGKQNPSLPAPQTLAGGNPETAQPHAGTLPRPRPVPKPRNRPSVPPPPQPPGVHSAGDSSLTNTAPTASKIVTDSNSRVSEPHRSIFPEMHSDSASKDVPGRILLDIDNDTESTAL
# Some of the results follow.
# Columns and labels:
# Assay in all cases: log2 fold change, soluble protein after heating vs DMSO (PISA); higher = thermal stabilisation; K562 lysate, 10 uM; active = over 0.2 and 3.5 SD of the protein, either way, in both replicates (recomputed)
# alvocidib = compound: CN1CC[C@H](c2c(O)cc(O)c3c(=O)cc(-c4ccccc4Cl)oc23)[C@H](O)C1 [alvocidib]
# Procedure, shortened: (§1)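 Values give the log-two fold change in thermal stability against solvent controls, from duplicates. Crude K562 extract at 1 mg/mL protein, made by dounce homogenisation in PBS pH 7.4 with 1 mM MgCl2, was treated with 10 μM compound for 30 min. After 3 min heating across 48°C-58°C, aliquots were pooled, adjusted to 0.5% NP-40 at 4°C and centrifuged at 21,000xg for 90 min. The supernatant was measured by TMTpro 16plex LC-MS/MS with channel sums equalised.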
# Tubastatin A = compound: CN1CCc2c(c3ccccc3n2Cc2ccc(C(=O)NO)cc2)C1 [Tubastatin A]
# Procedure, shortened: as §1
# [1] = compound: CNC(=O)C1=CC=CC=C1NC2=NC(=NC=C2Cl)NC3=C(C=C(C=C3)N4CCOCC4)OC
# Procedure, shortened: as §1
# defactinib = compound: CNC(=O)c1ccc(Nc2ncc(C(F)(F)F)c(NCc3nccnc3N(C)S(C)(=O)=O)n2)cc1 [defactinib]
# Procedure, shortened: as §1
# [2] = compound: CNc1nc(-c2ccc3c(N)n[nH]c3c2)cc(N2C[C@@H](C(=O)NC3CCCCC3)CC[C@H]2C)n1
# Procedure, shortened: as §1
# encorafenib = compound: COC(=O)N[C@@H](C)CNc1nccc(-c2cn(C(C)C)nc2-c2cc(Cl)cc(NS(C)(=O)=O)c2F)n1 [encorafenib]
# Procedure, shortened: as §1
# [3] = compound: COC(=O)[C@H](CCSC)NC(=O)C1=C(C=C(C=C1)NC[C@H](CS)N)C2=CC=CC=C2
# Procedure, shortened: as §1
# alisertib = compound: COc1cc(Nc2ncc3c(n2)-c2ccc(Cl)cc2C(c2c(F)cccc2OC)=NC3)ccc1C(=O)O [alisertib]
# Procedure, shortened: as §1
# [4] = compound: COc1cc2nc(-c3cc(F)ccc3O)nc(N[C@@H]3CNC[C@H]3C(C)(C)O)c2cc1OC
# Procedure, shortened: as §1
# gefitinib = compound: COc1cc2ncnc(Nc3ccc(F)c(Cl)c3)c2cc1OCCCN1CCOCC1 [gefitinib]
# Procedure, shortened: as §1
# lapatinib = compound: CS(=O)(=O)CCNCc1ccc(-c2ccc3ncnc(Nc4ccc(OCc5cccc(F)c5)c(Cl)c4)c3c2)o1 [lapatinib]
# Procedure, shortened: as §1
# pictilisib = compound: CS(=O)(=O)N1CCN(Cc2cc3nc(-c4cccc5[nH]ncc45)nc(N4CCOCC4)c3s2)CC1 [pictilisib]
# Procedure, shortened: as §1
# crizotinib = compound: C[C@@H](Oc1cc(-c2cnn(C3CCNCC3)c2)cnc1N)c1c(Cl)ccc(F)c1Cl [crizotinib]
# Procedure, shortened: as §1
# [5] = compound: C[C@H](C1=CC=C(C=C1)C(=O)NC2=C3C=CNC3=NC=C2)N
# Procedure, shortened: as §1
# duvelisib = compound: C[C@H](Nc1ncnc2nc[nH]c12)c1cc2cccc(Cl)c2c(=O)n1-c1ccccc1 [duvelisib]
# Procedure, shortened: as §1
# gandotinib = compound: Cc1cc(Nc2cc(CN3CCOCC3)c3nc(C)c(Cc4ccc(Cl)cc4F)n3n2)n[nH]1 [gandotinib]
# Procedure, shortened: as §1
# tozasertib = compound: Cc1cc(Nc2cc(N3CCN(C)CC3)nc(Sc3ccc(NC(=O)C4CC4)cc3)n2)n[nH]1 [tozasertib]
# Procedure, shortened: as §1
# doramapimod = compound: Cc1ccc(-n2nc(C(C)(C)C)cc2NC(=O)Nc2ccc(OCCN3CCOCC3)c3ccccc23)cc1 [doramapimod]
# Procedure, shortened: as §1
# bafetinib = compound: Cc1ccc(NC(=O)c2ccc(CN3CC[C@H](N(C)C)C3)c(C(F)(F)F)c2)cc1Nc1nccc(-c2cncnc2)n1 [bafetinib]
# Procedure, shortened: as §1
# [6] = compound: Cc1cccc(CC(=O)N2CCc3c2ccc(-c2cn(C)c4ncnc(N)c24)c3F)n1
# Procedure, shortened: as §1
Target,log2 fold change (alvocidib),log2 fold change (Tubastatin A),log2 fold change [1],log2 fold change (defactinib),log2 fold change [2],log2 fold change (encorafenib),log2 fold change [3],log2 fold change (alisertib),log2 fold change [4],log2 fold change (gefitinib),log2 fold change (lapatinib),log2 fold change (pictilisib),log2 fold change (crizotinib),log2 fold change [5],log2 fold change (duvelisib),log2 fold change (gandotinib),log2 fold change (tozasertib),log2 fold change (doramapimod),log2 fold change (bafetinib),log2 fold change [6]
ARIH2 (UniProt O95376),inactive: -0.043,inactive: 0.052,inactive: 0.031,inactive: 0.051,inactive: 0.028,inactive: 0.023,inactive: -0.018,inactive: -0.001,inactive: -0.023,inactive: -0.011,inactive: 0.057,inactive: 0.01,inactive: -0.034,inactive: 0.029,inactive: 0.028,inactive: -0.043,inactive: -0.001,inactive: 0.04,inactive: -0.001,inactive: -0.01
APBA2 (UniProt Q99767),inactive: -0.068,inactive: -0.027,inactive: -0.041,inactive: 0.013,inactive: 0.018,inactive: 0.002,inactive: 0.088,inactive: -0.042,inactive: 0.001,inactive: -0.009,inactive: -0.009,inactive: -0.086,inactive: -0.06,inactive: -0.167,inactive: -0.048,inactive: 0.122,inactive: -0.013,inactive: -0.009,inactive: -0.016,inactive: 0.148
ARL3 (UniProt P36405),inactive: -0.007,inactive: 0.008,inactive: 0.022,inactive: 0.005,inactive: 0.008,inactive: -0.031,inactive: -0.004,inactive: -0.018,inactive: -0.015,inactive: -0.013,inactive: -0.024,inactive: -0.012,inactive: 0.01,inactive: 0.006,inactive: -0.002,inactive: -0.001,inactive: -0.022,inactive: 0.01,inactive: 0.004,inactive: -0.04
ARMC8 (UniProt Q8IUR7),inactive: 0.019,inactive: -0.061,inactive: 0.014,inactive: 0.007,inactive: -0.005,inactive: 0.01,inactive: 0.003,inactive: 0.011,inactive: 0.025,inactive: -0.006,inactive: -0.025,inactive: -0.012,inactive: 0.005,inactive: -0.024,inactive: -0.013,inactive: -0.007,inactive: -0.001,inactive: -0.023,inactive: -0.034,inactive: -0.005
ARMT1 (UniProt Q9H993),inactive: 0.043,inactive: -0.123,inactive: -0.042,inactive: 0.008,inactive: -0.062,inactive: -0.005,inactive: 0.164,inactive: 0.013,inactive: 0.003,inactive: -0.029,inactive: -0.016,inactive: -0.031,inactive: -0.06,inactive: 0.066,inactive: 0.009,inactive: -0.111,inactive: -0.001,inactive: 0.005,inactive: -0.073,inactive: 0.019
ARRDC1 (UniProt Q8N5I2),inactive: 0.011,inactive: 0.072,inactive: -0.056,inactive: -0.035,inactive: -0.005,inactive: -0.01,inactive: -0.081,inactive: -0.096,inactive: -0.033,inactive: -0.264,inactive: -0.009,inactive: -0.111,inactive: -0.184,inactive: -0.046,inactive: -0.021,inactive: 0.026,inactive: 0.096,inactive: 0.059,inactive: 0.002,inactive: 0.122
ARPC4 isoform 3 (UniProt P59998),inactive: 0.005,inactive: 0.045,inactive: -0.023,inactive: 0.033,inactive: 0.002,inactive: 0.026,inactive: -0.009,inactive: 0.015,inactive: -0.007,inactive: -0.004,inactive: -0.011,inactive: 0.01,inactive: 0.042,inactive: 0.018,inactive: 0,inactive: -0.009,inactive: 0.024,inactive: 0.003,inactive: 0.007,inactive: -0.031
APOA1 (UniProt P02647),inactive: 0.013,inactive: -0.005,inactive: 0.104,inactive: -0.028,inactive: 0.086,inactive: -0.098,inactive: 0.032,inactive: -0.028,inactive: 0,inactive: 0.191,inactive: -0.005,inactive: -0.053,inactive: -0.076,inactive: -0.072,inactive: 0.084,inactive: 0.129,inactive: 0.039,inactive: 0.009,inactive: 0.015,inactive: 0.035
APEX1 (UniProt P27695),inactive: 0.13,inactive: -0.07,inactive: 0.006,inactive: 0.023,inactive: 0.038,inactive: -0.024,inactive: 0.076,inactive: 0,inactive: -0.019,inactive: -0.064,inactive: 0.022,inactive: 0.039,inactive: -0.01,active: 0.352,inactive: -0.025,inactive: -0.042,inactive: -0.029,inactive: -0.045,inactive: 0.106,inactive: -0.067
ARHGAP12 (UniProt Q8IWW6),inactive: -0.103,inactive: 0.103,inactive: 0,inactive: -0.029,inactive: 0.167,inactive: -0.032,inactive: 0.009,inactive: 0.02,inactive: 0.023,inactive: 0.009,inactive: 0.062,inactive: -0.043,inactive: -0.026,inactive: -0.16,inactive: -0.014,inactive: 0.205,inactive: -0.076,inactive: -0.008,inactive: 0.015,inactive: 0.15
AP5M1 (UniProt Q9H0R1),inactive: -0.02,inactive: 0.013,inactive: 0.057,inactive: 0.021,inactive: -0.083,inactive: -0.139,inactive: -0.014,inactive: 0.022,inactive: -0.051,inactive: -0.024,inactive: 0.019,inactive: -0.448,inactive: -0.029,inactive: -0.179,inactive: 0,inactive: -0.001,inactive: 0.029,inactive: 0.008,inactive: -0.036,inactive: 0.05
ARNT (UniProt P27540),inactive: -0.026,inactive: -0.03,inactive: 0.053,inactive: -0.014,inactive: 0.075,inactive: 0.043,inactive: 0.03,inactive: 0.043,inactive: -0.019,inactive: 0.022,inactive: 0.074,inactive: 0.027,inactive: 0.048,inactive: -0.051,inactive: -0.002,inactive: 0.07,inactive: 0.02,inactive: 0.012,inactive: 0.014,inactive: 0.065
ARHGEF12 (UniProt Q9NZN5),inactive: -0.098,inactive: -0.015,inactive: 0.038,inactive: -0.007,inactive: -0.012,inactive: 0.007,inactive: 0.05,inactive: -0.013,inactive: 0.013,inactive: 0.043,inactive: -0.008,inactive: -0.011,inactive: 0.021,inactive: -0.151,inactive: 0.02,inactive: 0.065,inactive: -0.011,inactive: 0.021,inactive: -0.042,inactive: 0.119
ARL2 (UniProt P36404),inactive: 0.037,inactive: -0.053,inactive: -0.033,inactive: -0.051,inactive: 0.009,inactive: -0.059,inactive: 0.015,inactive: 0.033,inactive: 0.012,inactive: -0.013,inactive: -0.043,inactive: -0.042,inactive: -0.03,inactive: -0.008,inactive: -0.003,inactive: -0.055,inactive: 0.046,inactive: 0.059,inactive: -0.069,inactive: 0.002
ARHGEF7 isoform 5 (UniProt Q14155),inactive: 0.012,inactive: -0.017,inactive: 0.013,inactive: 0.043,inactive: 0.033,inactive: 0.031,inactive: 0.061,inactive: 0,inactive: -0.014,inactive: -0.008,inactive: 0.027,inactive: -0.031,inactive: 0.035,inactive: 0.018,inactive: -0.03,inactive: -0.025,inactive: 0.012,inactive: 0.001,inactive: 0.01,inactive: 0.018
ARHGAP17 (UniProt Q68EM7),inactive: 0.003,inactive: -0.037,inactive: 0.014,inactive: 0.027,inactive: 0.004,inactive: -0.044,inactive: 0.016,inactive: 0,inactive: -0.013,inactive: -0.017,inactive: 0.004,inactive: -0.015,inactive: -0.047,inactive: 0.03,inactive: 0.006,inactive: -0.122,inactive: 0.071,inactive: 0.031,inactive: -0.005,inactive: -0.045
